Laboratory results published in the supplement of paper PMC5770031.
The other results are listed elsewhere or left out. Single values are uncertain here, since repeats match poorly.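 ATM8/balancer (normal ATM) heterozygous flies were crossed on treated food; parents laid eggs 5–6 days, offspring developed ~12 days, so parents and larvae ingested compound. Readout: fraction of emerged adults homozygous for ATM8 versus 2% DMSO controls. Compounds were neutral at 10–20% homozygotes, harmful below 10%, helpful above 20%.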

test system: Drosophila melanogaster ATM8 (temperature-sensitive ATM allele); assay: fraction of eclosed F1 progeny that are homozygous ATM8 (rescue of developmental lethality); higher = more rescue of ATM8 developmental lethality; extreme values may be limits of the assay; settings: compound concentration applied to food 0.2 mM; 21 °C

Row | SMILES | fraction of eclosed F1 progeny that are homozygous ATM8
1 | CC(C)(C)NCC(O)c1ccccc1Cl (stereo not drawn) | 0.345
2 | CNCCC=C1c2ccccc2CCc2ccccc21 | 0.129
3 | OC[C@H]1O[C@@H](OCCc2ccc(O)cc2)[C@H](O)[C@@H](O)[C@@H]1O | 0.213
4 | Cc1ccc2c(c1)CC[C@H]1CC(=O)CC[C@]21C | 0.0303
5 | CCc1c2c(nc3ccc(OC(=O)N4CCC(N5CCCCC5)CC4)cc13)-c1cc3c(c(=O)n1C2)COC(=O)[C@]3(O)CC | 0.0395
6 | CC(C)(O/N=C(\C(=O)N[C@@H]1C(=O)N2C(C(=O)[O-])=C(C[n+]3ccccc3)CS[C@H]12)c1csc(N)n1)C(=O)O | 0.0909
7 | C[C@@H](O)[C@H](N)C(=O)O | 0
8 | CCC(C)(C)O | 0.254
9 | Cc1ccc(/C(=C\CN2CCCC2)c2ccccn2)cc1 | 0.171
10 | Oc1nc2cc(Cl)c(Cl)cc2nc1O | 0
11 | C=CC[C@@H]1/C=C(\C)C[C@H](C)C[C@H](OC)[C@H]2O[C@@](O)(C(=O)C(=O)N3CCCC[C@H]3C(=O)O[C@H](/C(C)=C/[C@@H]3CC[C@@H](O)[C@H](OC)C3)[C@H](C)[C@@H](O)CC1=O)[C@H](C)C[C@@H]2OC | 0
12 | CC(=O)OC1CCC23CC1(C)CCC2C(C)(C)CC3OC(C)=O (stereo not drawn) | 0.0952
13 | O=C([O-])c1ccccc1O.[Na+] | 0.178
14 | COc1ccc2[nH]cc(CCNC(C)=O)c2c1 | 0.1
15 | NC[C@H]1O[C@H](O[C@H]2[C@H](O[C@@H]3O[C@H](CO)[C@@H](O)[C@H]3O)[C@@H](O)[C@H](N)C[C@@H]2N)[C@H](N)[C@@H](O)[C@@H]1O | 0.0976
16 | CC(=O)O[C@H]1C[C@H](O[C@H]2[C@@H](O)C[C@H](O[C@H]3[C@@H](O)C[C@H](O[C@H]4CC[C@@]5(C)[C@H](CC[C@@H]6[C@@H]5C[C@@H](O)[C@]5(C)[C@@H](C7=CC(=O)OC7)CC[C@]65O)C4)O[C@@H]3C)O[C@@H]2C)O[C@H](C)[C@H]1O[C@@H]1O[C@H](CO)[C@@H](O)[C@H](O)[C@H]1O | 0.163
17 | CC(C)N1CCN(c2ccc(OCC3COC(Cn4cncn4)(c4ccc(Cl)cc4Cl)O3)cc2)CC1 (stereo not drawn) | 0.106
18 | COc1ccc(CCN2CCC(Nc3nc4ccccc4n3Cc3ccc(F)cc3)CC2)cc1 | 0.25
19 | CCN(Cc1ccncc1)C(=O)C(CO)c1ccccc1 (stereo not drawn) | 0.139
20 | Cc1ncc([N+](=O)[O-])n1CCO | 0.171
21 | OC(CCN1CCCCC1)(c1ccccc1)C1CC2C=CC1C2 (stereo not drawn) | 0.0408
22 | CC(=O)O[C@H]1CC[C@@]2(C)[C@H](CC[C@@H]3[C@@H]2CC[C@]2(C)[C@@H]4[C@H](C[C@@H]32)O[C@]2(CC[C@@H](C)CO2)[C@H]4C)C1 | 0.139
23 | C#CCN(C)Cc1ccccc1 | 0.119
24 | C[C@H]1[C@@H](O)O[C@@H]2O[C@@]3(C)CC[C@H]4[C@H](C)CC[C@@H]1[C@@]24OO3 | 0.122
25 | CC1=C2[C@H]3OC(=O)[C@@H](C)[C@@H]3CC[C@@]2(C)C=CC1=O | 0.147

Row | SMILES | fraction of eclosed F1 progeny that are homozygous ATM8
26 | CCn1cc(C(=O)O)c(=O)c2ccc(C)nc21 | 0.0455
27 | COc1ccc2cc(CCC(C)=O)ccc2c1 | 0.123
28 | O=C(O)CCC(=O)OC[C@@H](NC(=O)C(Cl)Cl)[C@H](O)c1ccc([N+](=O)[O-])cc1 | 0.0526
29 | CCCCCC(C)N (stereo not drawn) | 0.0488
30 | O=C(CCCN1CC=C(n2c(=O)[nH]c3ccccc32)CC1)c1ccc(F)cc1 | 0.115
31 | CCN(CC)CCNC(=O)c1cc(S(C)(=O)=O)ccc1OC | 0.104
32 | CC1(C)C(=O)CC[C@@]2(C)C1C[C@@H](O)[C@@]1(C)C3=CC(=O)O[C@@H](c4ccoc4)[C@]3(C)CCC21 (stereo partly drawn) | 0.0625
33 | Oc1c(I)cc(I)c2cccnc12 | 0.268
34 | COc1cc2nc(N3CCN(C(=O)c4ccco4)CC3)nc(N)c2cc1OC | 0.318
35 | NCCS(=O)(=O)O | 0
36 | CCC(N)C(O)c1ccc(O)c(O)c1 (stereo not drawn) | 0.273
37 | CCn1cc(C(=O)O)c(=O)c2cnc(N3CCNCC3)nc21 | 0.0286
38 | CC(=O)N[C@@H](CC(=O)N[C@@H](CCC(=O)O)C(=O)O)C(=O)O | 0.0513
39 | Cc1ccc(S(=O)(=O)NC(=O)NN2CC3CCCC3C2)cc1 (stereo not drawn) | 0.143
40 | O=c1c(O)cccc2cc(O)c(O)c(O)c12 | 0.0847
41 | O=C(O)c1cc2ccccc2[nH]1 | 0.167
42 | O=c1c(O)c(-c2cc(O)c(O)c(O)c2)oc2cc(O)cc(O)c12 | 0.18
43 | Nc1nc(=O)c2[nH]c(=O)cnc2[nH]1 | 0.0494
44 | C=C1C[C@H]2[C@@H]3C=C(C)C4=CC(=O)CC[C@]4(C)[C@H]3CC[C@]2(C)[C@@]1(OC(C)=O)C(C)=O | 0.0233
45 | N[C@H]1C(O)O[C@H](CO)[C@@H](O)[C@@H]1O (stereo partly drawn) | 0.152
46 | N=C(N)NC(=N)N1CCOCC1 | 0.0877
47 | NC(C(=O)O)C(O)C(=O)O (stereo not drawn) [d,l-threo-3-HYDROXYASPARTIC ACID] | 0.2
48 | Cc1ncc(CSSCc2cnc(C)c(O)c2CO)c(CO)c1O | 0.128
49 | CC1NC(=O)NC1=O (stereo not drawn) | 0.119
50 | CC(=O)Oc1cccc2c1C(=O)c1c(OC(C)=O)cc(C(=O)O)cc1C2=O | 0.244

Row | SMILES | fraction of eclosed F1 progeny that are homozygous ATM8
51 | N=C(N)NCC1COC2(CCCCC2)O1 (stereo not drawn) | 0.0286
52 | CC1(C)OC(=O)NC1=O | 0.0857
53 | Nc1ccc(C(=O)NCC(=O)O)cc1 | 0.172
54 | COc1ccc(NS(=O)(=O)c2ccc(N)cc2)nn1 | 0.2
55 | Cn1nnnc1SCC1=C(C(=O)O)N2C(=O)[C@@H](NC(=O)[C@H](O)c3ccccc3)[C@H]2SC1 | 0.149
56 | CCC[C@H](N[C@@H](C)C(=O)N1[C@H](C(=O)O)C[C@@H]2CCCC[C@@H]21)C(=O)OCC | 0.225
57 | OCCN1CCN(CCCN2c3ccccc3Sc3ccc(Cl)cc32)CC1 | 0.333
58 | CN(C)CCc1c[nH]c2ccc(Cn3cncn3)cc12 | 0.226
59 | Nc1ccc(S(=O)(=O)c2ccc(N)cc2)cc1 | 0.0312
60 | OC[C@H]1O[C@@H](Oc2ccc(O)cc2)[C@H](O)[C@@H](O)[C@@H]1O | 0.172
61 | CC1(C)C(C=C(Cl)Cl)C1C(=O)OC(C#N)c1cccc(Oc2ccccc2)c1 (stereo not drawn) | 0.182
62 | Oc1cc(Cl)ccc1Oc1ccc(Cl)cc1Cl | 0.0455
63 | CC(=O)Oc1cccc(O)c1 | 0.1
64 | CCN1CCN(C(=O)N[C@@H](C(=O)N[C@@H]2C(=O)N3[C@@H]2SC(C)(C)[C@@H]3C(=O)O)c2ccccc2)C(=O)C1=O | 0.119
65 | CO[C@@H]1[C@@H](OC(N)=O)[C@@H](O)[C@H](Oc2ccc3c(O)c(NC(=O)c4ccc(O)c(CC=C(C)C)c4)c(=O)oc3c2C)OC1(C)C | 0.176
66 | O=C(NCO)c1cccnc1 | 0.143
67 | CN1CCCCC1CCN1c2ccccc2Sc2ccc([S+](C)[O-])cc21 (stereo not drawn) | 0.182
68 | N=C(N)NCCC[C@@H](NC(=O)[C@@H](N)Cc1ccc(O)cc1)C(=O)O | 0.113
69 | O=C(O[C@H]1CN2CCC1CC2)N1CCc2ccccc2[C@@H]1c1ccccc1 | 0
70 | NC(=O)N/N=C/c1ccc([N+](=O)[O-])o1 | 0.286
71 | COc1c(-c2ccccc2)oc2cc(O)cc(O)c2c1=O | 0.256
72 | CCCC(=O)Nc1ncnc2c1ncn2[C@@H]1O[C@@H]2COP(=O)(O)O[C@H]2[C@H]1OC(=O)CCC | 0.26
73 | CC(=O)O[C@H]1CC[C@]2(C)C3=CC(=O)[C@@]4(C)C(C[C@@H]5OC6(OCC(C)CC6Br)[C@@H](C)[C@@H]54)C3CC[C@H]2C1 (stereo partly drawn) [3beta-ACETOXY-23-BROMO-ISOALLOSPIROST-9 (11)-ENE-12-ONE] | 0.13
74 | CC1=CC(=O)NS(=O)(=O)O1 | 0.186
75 | O=c1c(-c2ccccc2)coc2ccccc12 | 0.243

From entry 51 as far as 54, copied from above:
Row | SMILES | fraction of eclosed F1 progeny that are homozygous ATM8
51 | N=C(N)NCC1COC2(CCCCC2)O1 (stereo not drawn) | 0.0286
52 | CC1(C)OC(=O)NC1=O | 0.0857
53 | Nc1ccc(C(=O)NCC(=O)O)cc1 | 0.172
54 | COc1ccc(NS(=O)(=O)c2ccc(N)cc2)nn1 | 0.2

Later entries

Row | SMILES | fraction of eclosed F1 progeny that are homozygous ATM8
76 | O=C(CNC(=O)c1ccc(Cl)cc1)NO | 0.0698
77 | CN1CCCC(n2nc(Cc3ccc(Cl)cc3)c3ccccc3c2=O)CC1 (stereo not drawn) | 0.282
78 | CC(C)CCC[C@@H](C)[C@H]1CC[C@H]2[C@@H]3CC[C@H]4C[C@H](O)CC[C@]4(C)[C@H]3CC[C@]12C | 0.116
79 | CCOC(=O)[C@H](CCc1ccccc1)N[C@H]1CCc2ccccc2N(CC(=O)O)C1=O | 0.326
80 | O=C(N/N=C/c1ccc([N+](=O)[O-])o1)c1cc([N+](=O)[O-])cc([N+](=O)[O-])c1O | 0.0333
81 | C[C@]12CC[C@H]3[C@@H](CC[C@@]45O[C@@H]4C(O)=C(C#N)C[C@]35C)[C@@H]1CC[C@@H]2O | 0.218
82 | COC1=C(OC)C(=O)C(CCCCCCCCCCO)=C(C)C1=O | 0.133
83 | COc1cc(-c2coc3cc(O)c(OC)c(O)c3c2=O)cc(O)c1OC | 0.188
84 | CCOC(=O)OC(C)OC(=O)[C@@H]1N2C(=O)[C@@H](NC(=O)[C@H](N)c3ccccc3)[C@H]2SC1(C)C (stereo partly drawn) | 0.105
85 | CO/N=C(\C(=O)N[C@@H]1C(=O)N2C(C(=O)O)=C(CSc3nc(=O)c(O)nn3C)CS[C@H]12)c1csc(N)n1 | 0.0625
86 | NCCCC[C@H](N[C@@H](CCc1ccccc1)C(=O)O)C(=O)N1CCC[C@H]1C(=O)O | 0.14
87 | NC1(C(=O)O)CCCC1 | 0.0714
88 | CC(C)(C)NC[C@H](O)COc1nsnc1N1CCOCC1 | 0.162
89 | C[C@]12CCC(=O)C=C1CC[C@@H]1[C@@H]2[C@@H](O)C[C@@]2(C)[C@H]1CC[C@]2(O)C(=O)COC(=O)CCC(=O)O | 0.0851
90 | COc1ccc(Cc2nccc3cc(OC)c(OC)cc23)cc1OC | 0.0488
91 | c1ccc(C2CN3CCSC3=N2)cc1 (stereo not drawn) | 0.0417
92 | C=C1c2cccc(O)c2C(=O)C2=C(O)[C@]3(O)C(=O)C(C(N)=O)=C(O)[C@@H](N(C)C)[C@@H]3[C@@H](O)[C@H]12 | 0.0962
93 | Cc1scc2c1N(C(=O)CN1CCN(C)CC1)c1ccccc1NC2=O | 0.175
94 | COc1cc(C(=O)O)cc(OC)c1O | 0.0952
95 | COc1cc2c(c(OC)c1OC)-c1ccc(=O)c(O)cc1[C@@H](NC(C)=O)CC2 | 0
96 | CC(COc1ccccc1)N(CCCl)Cc1ccccc1 (stereo not drawn) | 0.0455
97 | Nc1ncn([C@@H]2O[C@H](CO)[C@@H](O)[C@H]2O)c(=O)n1 | 0.13
98 | CCCNC(C)C(=O)Nc1ccccc1C (stereo not drawn) | 0.194
